These are yes or no findings as the source states them, for the method shown. Binding seen in cells or lysates may run through a third protein. These calls come from enrichment with a bait or labelling near it, and not all partners need be listed. Sequences can lack the tags named with a protein.
Columns and labels:
[1] = target: Thermotoga maritima encapsulin (T1 encapsulin shell) (T. maritima) (UniProt Q9WZP2); assay: co-purification of cargo with encapsulin particles (SDS-PAGE and in-gel tryptic digest mass spectrometry); cargo induced first (IPTG, 6 h), then encapsulin (L-arabinose, 18 h) in E. coli; particles purified by PEG-8000 precipitation, size exclusion (Sephacryl S-500) and anion exchange (DEAE); bands analysed by SDS-PAGE and MS
[2] = target: Myxococcus xanthus encapsulin (T3 encapsulin shell) (M. xanthus) (UniProt Q1D6H4); assay: as above

Row | Binder | binding [1] | binding [2]
1 | NTGGDLGIRK (native targeting peptide of the T. maritima (T1) encapsulin system, from the C-terminus of the native cargo protein; The targeting peptide is at the C-terminus of mNeonGreen; also called mNeonGreenTP (native T1 TP); native T1 TP; source: E. coli One shot BL21 (DE3) Star, pCDF-Duet1, IPTG induced before encapsulin; co-purified with encapsulin particles; not shown: mNeonGreen, N-terminal, kept) [mNeonGreen C-terminally fused to the native T1 targeting peptide] | binds | –
2 | PLTVGSLRRGG (native 11-residue targeting peptide of the M. xanthus (T3) encapsulin system; The targeting peptide is at the C-terminus of mNeonGreen; also called mNeonGreenTP (native T3 TP); native T3 TP; source: E. coli One shot BL21 (DE3) Star, pCDF-Duet1, IPTG induced before encapsulin; co-purified with encapsulin particles; not shown: mNeonGreen, N-terminal, kept) [mNeonGreen C-terminally fused to the native T3 targeting peptide] | – | binds

From publication PMC7925596, “Exploring targeting peptide-shell interactions in encapsulin nanocompartments” (Scientific Reports, 2021)
